{"source": "patent US9034905B2", "about": "“Synergistic microbicidal combinations” (Rohm and Haas Company, priority 2003, dated 2015)", "system": "Staphylococcus aureus (S. aureus—ATCC #6538)", "experiment": "Synergy test, microtiter plate high resolution MIC assay, Gram (+) bacteria", "assay_type": "cell-based", "settings": "72 hours, M9GY medium, 30° C.", "experimental": "When the sum of Qa/QA and Qb/QB is greater than one, antagonism is indicated. […] The lower the SI, the greater the synergy shown by that particular mixture. The minimum inhibitory concentration (MIC) of a microbicide is the lowest concentration tested under a specific set of conditions that prevents the growth of added microorganisms.\nSynergy tests were conducted using standard microtiter plate assays with media designed for optimal growth of the test microorganism. Minimal salt medium supplemented with 0.2% glucose and 0.1% yeast extract (M9GY medium) was used for testing bacteria; Potato Dextrose Broth (PDB medium) was used for testing yeast and mold. In this method, a wide range of combinations of microbicides was tested by conducting high resolution MIC assays in the presence of various concentrations of MI. High resolution MICs were determined by adding varying amounts of microbicide to one column of a microtitre plate and doing subsequent ten-fold dilutions using an automated liquid handling system to obtain a series of endpoints ranging from 2 ppm to 10,000 ppm active ingredient. […] The bacteria were used at a concentration of about 5×10^6 bacteria per mL and the yeast and mold at 5×10^5 fungi per mL. These microorganisms are representative of natural contaminants in many consumer and industrial applications. […] (yeast and mold) or 30° C. (bacteria). […]", "note": "Values joined by “and” are separate entries in the source; they are usually repeats but may differ in a detail not shown here. Equal entries are not always repeated. At least one read-out could not be matched to a standard name with certainty.", "data": [{"smiles": "Cn1sccc1=O", "note": "[2-methyl-3-isothiazolone]", "values": [{"measurement": "MIC of the microbicide acting alone (QA or QB)", "result": "80 ppm and 50 ppm"}]}]}
